In PMC2954983:
These are yes or no findings as the source states them, for the method shown. Binding seen in cells or lysates may run through a third protein. Some binding calls cover weakened binding; strength is not graded here.

Amino acid sequences for entries named in this document (tags omitted). A change or cut given only in a name is not applied to a line headed by its entry. Chains listed by the source or under a name are the forms on record and can include a tag or linker.
AT1R N4,176,188 D, tagged with venus1 or venus2 (P30556, form named): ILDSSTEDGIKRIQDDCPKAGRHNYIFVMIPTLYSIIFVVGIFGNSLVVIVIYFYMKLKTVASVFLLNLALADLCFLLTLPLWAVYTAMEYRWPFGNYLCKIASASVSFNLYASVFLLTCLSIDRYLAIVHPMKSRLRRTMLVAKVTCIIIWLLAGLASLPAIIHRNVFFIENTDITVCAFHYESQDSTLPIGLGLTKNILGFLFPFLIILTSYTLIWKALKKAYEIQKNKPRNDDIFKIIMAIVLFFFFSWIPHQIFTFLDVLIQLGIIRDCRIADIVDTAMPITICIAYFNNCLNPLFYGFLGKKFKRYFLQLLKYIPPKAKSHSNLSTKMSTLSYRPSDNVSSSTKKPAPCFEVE

Legend:
[1] = biological target: AT1R N4,176,188 D, tagged with venus1 or venus2 (UniProt P30556); test: split reporter; BiFC of venus1- and venus2-tagged receptors in transfected HEK293 cells, read by Western blot of RIPA lysates with an anti-GFP antibody that does not recognise receptors carrying only one portion of venus
[2] = biological target: AT1R N4,176,188 D, tagged with venus1 or venus2 (UniProt P30556); test: split reporter; BiFC of venus1- and venus2-tagged receptors in transfected HEK293 cells, fixed with 3% paraformaldehyde, read by fluorescence microscopy (excitation 488 nm, emission 525 nm)
[3] = biological target: angiotensin II AT1 receptor, wild type, tagged with venus1 or venus2 (UniProt P30556); test: split reporter; BiFC of venus1- and venus2-tagged receptors in transfected HEK293 cells, read by Western blot of RIPA lysates with an anti-GFP antibody that does not recognise receptors carrying only one portion of venus
[4] = biological target: angiotensin II AT1 receptor, wild type, tagged with venus1 or venus2 (UniProt P30556); test: split reporter; BiFC of WT AT1R-v1/v2 and β2AR-v1/v2 in transfected HEK293 cells resuspended in PBS, fluorescence read in a plate reader at 528 nm; with co-expressed Bip WT or T37G, ERp57, or inhibitory RNAs
[5] = biological target: angiotensin II AT1 receptor, wild type, tagged with venus1 or venus2 (UniProt P30556); test: split reporter; BiFC of venus1- and venus2-tagged receptors in transfected HEK293 cells, fixed with 3% paraformaldehyde, read by fluorescence microscopy (excitation 488 nm, emission 525 nm)

Measured: binding

AT1R N4,176,188 D, tagged with venus1 or venus2 (from UniProt P30556 2-359) (receptor)
binds: [1] | [2]

angiotensin II AT1 receptor, wild type, tagged with venus1 or venus2 (from UniProt P30556 1-359)
not listed: [1]
binds: all other assays above
